Experiment in all cases: affinity purification with mass spectrometry
For one experiment, the target named is T1, SLC16A11 (human) (UniProt Q8NCK7).
T1 sequence: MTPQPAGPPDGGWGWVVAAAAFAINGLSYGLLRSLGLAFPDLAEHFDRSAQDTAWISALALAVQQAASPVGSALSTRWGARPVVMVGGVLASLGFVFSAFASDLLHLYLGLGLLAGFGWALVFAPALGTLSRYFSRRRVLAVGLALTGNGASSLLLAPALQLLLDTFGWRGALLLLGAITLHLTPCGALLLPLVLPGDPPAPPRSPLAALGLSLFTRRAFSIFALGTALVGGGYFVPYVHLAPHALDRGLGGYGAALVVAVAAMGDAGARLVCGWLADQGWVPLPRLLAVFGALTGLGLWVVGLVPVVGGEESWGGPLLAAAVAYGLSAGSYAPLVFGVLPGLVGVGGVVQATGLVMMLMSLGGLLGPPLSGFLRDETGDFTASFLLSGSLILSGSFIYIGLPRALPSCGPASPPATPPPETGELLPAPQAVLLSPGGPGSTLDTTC

The chains behind the UniProt entries cited, without tags or fusion partners. Residues count along the entry.
UniProt P35613, residues 22-385: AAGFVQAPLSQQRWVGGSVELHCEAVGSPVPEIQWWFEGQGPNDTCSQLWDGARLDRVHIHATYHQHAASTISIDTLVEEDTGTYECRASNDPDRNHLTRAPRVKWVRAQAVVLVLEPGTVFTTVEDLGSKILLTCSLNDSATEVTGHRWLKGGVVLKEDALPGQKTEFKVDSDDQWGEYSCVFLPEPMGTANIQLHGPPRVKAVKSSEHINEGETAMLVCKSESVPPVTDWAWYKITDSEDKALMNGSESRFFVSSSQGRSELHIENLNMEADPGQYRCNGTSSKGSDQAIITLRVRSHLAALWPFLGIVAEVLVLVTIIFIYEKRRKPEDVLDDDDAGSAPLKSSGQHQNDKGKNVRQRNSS

In the next experiment the target is T2, SLC16A7 (human) (UniProt O60669).
T2 sequence: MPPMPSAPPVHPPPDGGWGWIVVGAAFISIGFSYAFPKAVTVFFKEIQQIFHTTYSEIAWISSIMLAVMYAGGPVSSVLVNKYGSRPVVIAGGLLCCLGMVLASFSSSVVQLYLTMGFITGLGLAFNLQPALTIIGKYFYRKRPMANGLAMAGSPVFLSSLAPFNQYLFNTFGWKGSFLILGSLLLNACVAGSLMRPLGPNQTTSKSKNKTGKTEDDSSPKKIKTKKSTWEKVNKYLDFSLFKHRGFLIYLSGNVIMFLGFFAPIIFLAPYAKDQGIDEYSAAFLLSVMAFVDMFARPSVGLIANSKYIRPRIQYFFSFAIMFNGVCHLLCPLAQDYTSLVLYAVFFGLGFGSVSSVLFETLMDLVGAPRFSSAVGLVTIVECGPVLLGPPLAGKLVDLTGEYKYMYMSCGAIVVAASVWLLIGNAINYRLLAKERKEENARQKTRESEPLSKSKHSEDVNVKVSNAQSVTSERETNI

The next experiment concerns the target T3, SLC9A6 (human) (UniProt Q92581).
T3 sequence: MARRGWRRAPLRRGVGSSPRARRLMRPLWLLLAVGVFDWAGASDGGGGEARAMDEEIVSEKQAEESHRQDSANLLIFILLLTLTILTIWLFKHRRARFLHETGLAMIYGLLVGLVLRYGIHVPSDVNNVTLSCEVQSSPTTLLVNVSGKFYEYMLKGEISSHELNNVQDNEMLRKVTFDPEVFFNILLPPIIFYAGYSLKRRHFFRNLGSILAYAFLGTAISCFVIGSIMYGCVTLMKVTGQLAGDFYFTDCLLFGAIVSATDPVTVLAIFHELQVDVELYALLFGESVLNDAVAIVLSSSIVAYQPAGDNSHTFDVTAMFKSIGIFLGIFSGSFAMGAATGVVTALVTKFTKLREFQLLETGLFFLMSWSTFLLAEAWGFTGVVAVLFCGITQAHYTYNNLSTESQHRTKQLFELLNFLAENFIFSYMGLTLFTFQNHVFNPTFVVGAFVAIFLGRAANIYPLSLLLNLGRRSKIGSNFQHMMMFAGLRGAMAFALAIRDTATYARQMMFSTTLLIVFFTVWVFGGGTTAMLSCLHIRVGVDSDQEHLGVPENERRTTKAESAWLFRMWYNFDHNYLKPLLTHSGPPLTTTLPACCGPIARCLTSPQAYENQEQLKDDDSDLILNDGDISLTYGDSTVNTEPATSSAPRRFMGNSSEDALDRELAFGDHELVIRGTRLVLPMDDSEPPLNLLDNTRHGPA

These are yes or no findings as the source states them, for the method shown. In cells and extracts the contact can be indirect. A yes stands for co-enrichment or nearness to the bait. Other partners may have been found.

For the molecule Basigin (from UniProt P35613 22-385), the binding result in the experiment with SLC16A11 (human) and in the experiment with SLC16A7 (human) was “binds” in each case.

B1: calcium-binding protein CHP1 (protein, UniProt Q99653 1-195)
chain: MGSRASTLLRDEELEEIKKETGFSHSQITRLYSRFTSLDKGENGTLSREDFQRIPELAINPLGDRIINAFFPEGEDQVNFRGFMRTLAHFRPIEDNEKSKDVNGPEPLNSRSNKLHFAFRLYDLDKDEKISRDELLQVLRMMVGVNISDEQLGSIADRTIQEADQDGDSAISFTEFVKVLEKVDVEQKMSIRFLH
As for B1, the binding entry in the experiment with SLC9A6 (human) is listed as “binds”.

The record behind these values is paper doi:10.1101/2024.09.30.615192.
